This is an account of results in patent publication US20150275215.

This series concerns the target PDGFRbeta (endogenous, U87MG / U87MGΔEGFR cells) (Homo sapiens) (UniProt P09619). The series is described as follows: activity in cells. The following applies: 200 nM aptamer, protein on the cell surface.

For at least one entry, the source does not settle the construct or the ends of the probe. No signal at the amounts used counts as a negative.

Turning to “UGUCGUGGGGCAUCGAGUAAAUGCAAUUCGACA [Gint4.T]”, where the note is “2'-F all pyrimidines, inhibition of PDGF-BB-induced PDGFRβ tyrosine phosphorylation at 5 min, U87MG and U87MGΔEGFR, variant of Gint4”, the functional effect of the aptamer turned out to be 70 % inhibition.
Regarding “UUCGUACCGGGUAGGUUGGCUUGCACAUAGAACGUGUCA [unrelated aptamer]”, the “functional effect of the aptamer” value (2'-F pyrimidines, no effect on PDGF-BB-induced PDGFRβ phosphorylation) is given as “not active”.
